Percent effect of library compounds

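Whole-parasite assay of Trypanosoma brucei over 72 hours; the read-out is not stated. Concentration: 30 µM. The record gives no direction; compounds that gave an IC50 in retests scored well above the rest, so higher reads as stronger inhibition. Values scatter widely below zero; nearly all retest evidence comes from the higher of the two concentrations used. Of about 64,000 compounds tested this way, about 940 (1.5%) reached 50% or more in at least one test.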

Results are given as percent effect. The controls that fix the scale are not given in the record; negative values are as filed. Compounds were drawn at random from those tested, without regard to their results.

{"compound": "Cc1ccccc1CN1C[C@@H](CN(C)CCO)[C@@H](CO)C1", "Percent Effect": 6.778}
{"compound": "O=C(c1ccc2c(c1)OCO2)N1CCC(Nc2cccnn2)CC1", "Percent Effect": -20.7}
{"compound": "CN(CC(=O)NCC1CCCO1)Cc1nc2c(s1)CCCC2", "stereo": "stereo not drawn", "Percent Effect": -17.4}
{"compound": "COCCN1CCC2(CCC(=O)N2Cc2csc(C)n2)CC1.O=C(O)C(F)(F)F.O=C(O)C(F)(F)F", "Percent Effect": -13.8}
{"compound": "CCc1nc2n(n1)CCCC2NC(=O)Nc1ccc(SC)c(F)c1", "stereo": "stereo not drawn", "Percent Effect": 3.268}
{"compound": "Fc1ccc(C2CCCCN2Cc2cc(-c3ccccn3)no2)cc1", "stereo": "stereo not drawn", "Percent Effect": -61.62}
{"compound": "COc1nn(C)c2c1CCCN(C(=O)COc1ccccc1)C2", "Percent Effect": -35.33}
{"compound": "Cc1cc(CN2CCC(O)(Cn3ccc4ncccc43)CC2)c(C)s1", "Percent Effect": 19.87}
{"compound": "Cn1cc(CN(C/C=C/c2ccccc2)C2CC2)cn1", "Percent Effect": -12.11}
{"compound": "Cc1ccc(NC(=O)Nc2c[nH]c(=O)[nH]c2=O)c(Cl)c1", "Percent Effect": 10.31}
{"compound": "[H][C@]12C[C@@H](Cn3cncn3)N(C(C)=O)[C@@]1([H])CCN(C(=O)NC1CC1)C2", "Percent Effect": -0.2874}
{"compound": "[H][C@@]12CCN(C(=O)c3ccnnc3)C[C@@]1([H])O[C@@H](c1ccncn1)C2", "Percent Effect": 30.3}
{"compound": "COCCNS(=O)(=O)c1cccc2c1CN(C(=O)c1ccoc1)CC2", "Percent Effect": -41.67}
{"compound": "CCOc1cc(CN(C)CC(C)(C)O)ccc1OC(F)F", "Percent Effect": -31.23}
{"compound": "Cc1cc2cc(NC(=O)Cn3ncc(N4CCCC4)cc3=O)ccc2o1", "Percent Effect": -19.03}
{"compound": "Cc1cccc(CN2Cc3ncn(C)c3C(COCC(=O)N(C)C)C2)n1.O=C(O)C(F)(F)F.O=C(O)C(F)(F)F.O=C(O)C(F)(F)F", "stereo": "stereo not drawn", "Percent Effect": -54.51}
{"compound": "COCC1CC2(CCN(Cc3cccnc3)CC2)CN1c1ncccn1.O=C(O)C(F)(F)F.O=C(O)C(F)(F)F.O=C(O)C(F)(F)F", "stereo": "stereo not drawn", "Percent Effect": -18.03}
{"compound": "Cn1nc(COc2cncnc2)c2c1CCN(Cc1ccco1)C2.O=C(O)C(F)(F)F", "Percent Effect": -5.404}
{"compound": "CCCn1ccnc1CN1CCCC1c1cccc(-n2ccnc2)n1", "stereo": "stereo not drawn", "Percent Effect": -1.78}
{"compound": "Cc1nc(C)c(C(=O)N2CCCC2c2nnc3n2CCCCC3)s1", "stereo": "stereo not drawn", "Percent Effect": -5.422}
{"compound": "Cc1cc(C2CCCN2C(=O)CN2C(=O)OC(C)(C)C2=O)on1", "stereo": "stereo not drawn", "Percent Effect": -26.02}
{"compound": "Cc1noc(C2CCCN(C(=O)c3ccc(Cl)cc3F)C2)n1", "stereo": "stereo not drawn", "Percent Effect": 18}
{"compound": "[H][C@@]12CN(Cc3ccc(Cl)cc3)C[C@]1([H])OCC(=O)N2CC(N)=O", "Percent Effect": -36.59}
{"compound": "CCC(=O)N1CCCC1(C)c1nc(C)no1", "stereo": "stereo not drawn", "Percent Effect": -27.67}
{"compound": "O=C(O)C(F)(F)F.[H][C@@]12CCN(c3ccc(C)nn3)C[C@]1([H])CN(C(=O)c1ccn(C)n1)C2", "Percent Effect": -42.03}
{"compound": "CC(NC(=O)c1cc(N2CCNC2=O)ccc1F)c1ccc(F)cc1", "stereo": "stereo not drawn", "Percent Effect": 4.438}
{"compound": "CN(CCC(C)(C)O)C(=O)C1CCC(=O)N(Cc2ccc(Cl)cc2)C1", "stereo": "stereo not drawn", "Percent Effect": -10.66}
{"compound": "Cc1cc(Cl)c(C)c(S(=O)(=O)N2CCN(Cc3ccccn3)CC2)c1Cl", "Percent Effect": -8.327}
{"compound": "Cc1ccc2[nH]nc(C(=O)NCC3CCN(Cc4c[nH]cn4)C3)c2c1", "stereo": "stereo not drawn", "Percent Effect": -15.85}
{"compound": "Cc1nccn1-c1cc(CNC(=O)N2CCSCC2)ccn1", "Percent Effect": -18.63}
{"compound": "Cc1nc(N(C)C)nc(-c2cccc(-c3ccn(CCCO)n3)c2)c1C", "Percent Effect": -11}

For reference, 3 entries once more:

With CN(CC(=O)NCC1CCCO1)Cc1nc2c(s1)CCCC2 (stereo not drawn) the screen gave -17.4%.
With O=C(c1ccc2c(c1)OCO2)N1CCC(Nc2cccnn2)CC1 the screen gave -20.7%.
With Cc1noc(C2CCCN(C(=O)c3ccc(Cl)cc3F)C2)n1 (stereo not drawn) the screen gave 18%.

Measurements from “University of Dundee, Small-Polar-MMV Screening Library” (2021), ChEMBL document CHEMBL3988442.